These are yes or no findings as the source states them, for the method shown. Binding seen in cells or lysates may run through a third protein. Binding can be weak; no strength is given. Where a sequence is shown, tags or fusion partners need not be part of it.
Assays:
Assay in all cases: pull-down; GST-fusion containing E. coli lysates bound to GST resin (4 °C, 1 h), then incubated with His-tagged CD151 containing lysate overnight at 4 °C; 3 washes with lysis buffer; eluted with 20 mM reduced glutathione; Western blot with anti-GST and anti-His; only the target purified
[1] = molecular target: GST-tagged CEACAM6
[2] = molecular target: GST-tagged LGR5
[3] = molecular target: GST-tagged TGFβ1

- binding [1]: binds
- binding [2]: binds
- binding [3]: binds
B1: His-tagged CD151 (protein, UniProt P48509 1-253)
chain: MGEFNEKKTTCGTVCLKYLLFTYNCCFWLAGLAVMAVGIWTLALKSDYISLLASGTYLATAYILVVAGTVVMVTGVLGCCATFKERRNLLRLYFILLLIIFLLEIIAGILAYAYYQQLNTELKENLKDTMTKRYHQPGHEAVTSAVDQLQQEFHCCGSNNSQDWRDSEWIRSQEAGGRVVPDSCCKTVVALCGQRDHASNIYKVEGGCITKLETFIQEHLRVIGAVGIGIACVQVFGMIFTCCLYRSLKLEHY

Reference: PMC7975690
